Data taken from PubChem BioAssay AID540276 (National Center for Advancing Translational Sciences (NCATS), 2011).
Where “and” joins values, the source holds several entries; their conditions need not be identical. Equal values may be shown once. Out of some 300,000 compounds screened, about 5,400 (1.8%) were called active. This list was built around the results that the source calls inconclusive (neither active nor inactive); the mix of calls is not that of the screen. Calls come from the whole dose curve; tested in HEK293 cells. Potencies beside an inconclusive call are fits to weak or partial responses and may not hold up.

test: qHTS for inhibitors of binding or entry into cells for Marburg Virus; details: Marburg virus pseudotyped entry inhibition, cell reporter; series mostly up to 37.8 µM
Potency is the fitted concentration of half-maximal effect.

SMILES | Potency
COc1ccccc1N1CCN(C2CCCN(C(=O)COc3ccccc3Cl)C2)CC1 (stereo not given) | inconclusive: 35.5 µM [inhibitor, single point]
CN(CC(=O)Nc1ccc(N2CCOCC2)cc1)CC(=O)Nc1cccc(C#N)c1 | inconclusive: 3.98 µM [inhibitor, partial curve, poor fit]
Cc1c(CCO)c(=O)n(C)n1C(=O)c1ccc(F)cc1 | inconclusive: 0.0291 µM [inhibitor, full curve, poor fit]
Cc1nc(N2CCCCC2C)c2c(C)c(C(=O)Nc3cccc(C(F)(F)F)c3)sc2n1 (stereo not given) | inconclusive: 35.5 µM [inhibitor, single point]
CCN(CC)c1nc(-c2cccc(OC)c2O)nc2ccccc12 | inconclusive: 11.2 µM [inhibitor, single point]
CCCCCCCSc1cc(OC)c(CCN(C)C)cc1OC | inconclusive: 35.5 µM [inhibitor, single point]
Cc1ccc(OCC(=O)NCc2ccccn2)c(Br)c1 | inactive
N#Cc1ccccc1Cn1c(=O)n(CCCC(=O)NCc2ccc3c(c2)OCO3)c(=O)c2sccc21 | inactive
Cc1ccc(NC(=O)C2CCCN(c3nnc(-n4c(C)ccc4C)s3)C2)c(C)c1 (stereo not given) | inconclusive: 25.1 µM [inhibitor, single point]
CC1=C(C)CS(=O)N(c2ccc(S(N)(=O)=O)cc2)C1 (stereo not given) | inactive
COC(=O)c1ccccc1-n1c(C)nc2ccccc2c1=O | inconclusive: 35.5 µM [activator, single point]
O=C(Nc1ccc(OC(F)(F)F)cc1)c1ccc(S(=O)(=O)N2CCOCC2)o1 | inconclusive: 11.2 µM [inhibitor, single point]
CC(=O)Nc1c([N+](=O)[O-])cc(C)c(Cl)c1[N+](=O)[O-] | inconclusive: 7.94 µM [inhibitor, partial curve, poor fit]
O=C(NCc1ccco1)c1cc2sccc2n1Cc1ccc(F)cc1 | inconclusive: 13 µM [inhibitor, partial curve, poor fit]
CC(C)CC(NC(=O)CCCNC(=O)CCC(=O)OC1O[C@H]2OC3(C)CC[C@H]4[C@H](C)CCC(C1C)C24OO3)C(=O)O (stereo not given in full) | inconclusive: 0.891 µM [inhibitor, full curve, poor fit]
Cc1ccc(NC(=O)Cn2c(O)c(N=NC(N)=S)c3ccccc32)cc1 | active: 8.91 µM
COc1ccc(OC)c(/C=C/c2ccnc3ccccc23)c1 | inactive
COc1ccc(C(=O)Nc2nnc(-c3ccco3)s2)cc1 | inconclusive: 2.91 µM [inhibitor, full curve, poor fit]
C1=C(c2ccc(-c3ccccc3)cc2)Nc2ncnn2C1c1ccco1 (stereo not given) | inconclusive: 35.5 µM [activator, partial curve, poor fit]
CC[N+](C)(C)c1cccc(O)c1 | inconclusive: 29.1 µM [activator, partial curve, poor fit] and inconclusive: 100 nM [inhibitor, full curve]
CC(C)COc1ccc(C(=O)NCC2(N3CCN(C)CC3)CCCCC2)cc1 | inactive
C/C(=N\Nc1nc(N)cc(Cl)n1)c1ccc(Cl)c(Cl)c1 | inactive

SMILES | Potency
CCc1ccc2ncc3c(-c4ccccc4)nn(-c4ccccc4)c3c2c1 | inactive
Cc1ccc(-c2nc(CSc3nc4ccccc4c(=O)n3C)cs2)cc1 | inconclusive: 6.51 µM [inhibitor, single point]
COc1ccc(-c2cc(=O)oc3cc(OC(C)C(=O)Nc4ccc(CN5CCOCC5)cc4)ccc23)cc1 (stereo not given) | inconclusive: 7.08 µM [inhibitor, full curve, poor fit]
COc1ccc(-c2nc(C#N)c(NCc3ccccc3Cl)o2)cc1 | inconclusive: 29.1 µM [inhibitor, single point]
Nc1ccc(Oc2cc(N)cc(Oc3ccccc3)c2)cc1 | inconclusive: 5.01 µM [activator, single point]
CCc1ccccc1NC(=O)CN(C)C(=O)CSc1nn(-c2ccc(F)cc2)c(=S)s1 | inconclusive: 0.631 µM [inhibitor, partial curve, poor fit]
O=C(COC(=O)/C=C/c1ccccc1Cl)NC(=O)Cc1ccccc1 | inconclusive: 0.1 µM [inhibitor, full curve, poor fit]
N#C/C(=N\Nc1ccccc1F)c1nc(-c2ccccc2)cs1 | inconclusive: 9.2 µM [inhibitor, partial curve]
CNCCCOc1cccc(OC(C)C)c1 | inconclusive: 6.31 µM [activator, single point]
CCc1nnc(SCC(=O)Nc2ccccc2Cl)nc1CC | inconclusive: 3.55 µM [inhibitor, partial curve, poor fit]
COc1ccc(CCNC(=O)c2nnn(-c3ccc4c(c3)OCCO4)c2N)cc1OC | inconclusive: 32.6 µM [inhibitor, single point]
Cc1ccc(S(=O)(=O)c2ccc(Oc3cccc(C)c3)cc2)cc1 | inconclusive: 20.6 µM [inhibitor, single point]
Cc1nnc(SCc2cc(=O)[nH]c(N3CCN(Cc4ccccc4)CC3)n2)s1 | inconclusive: 25.1 µM [activator, partial curve, poor fit]
CCOC(=O)c1cc(-c2ccc(N)cc2)sc1N | inactive
O=C(CSc1ccc(-c2cccc([N+](=O)[O-])c2)nn1)NCc1ccccc1 | inactive
CCOc1cc(N2CCOCC2)c(OCC)cc1NC(=O)COc1ncnc2ccc(Br)cc12 | inconclusive: 15.8 µM [inhibitor, single point]
Cc1cc(C)c2cc(CN(Cc3cccs3)Cc3nnnn3CC3CCCO3)c(=O)[nH]c2c1 (stereo not given) | inconclusive: 5.8 µM [inhibitor, partial curve, poor fit]
CCCc1[nH]nc2c1C(c1c(C)nn(-c3ccccc3)c1Cl)C(C#N)=C(N)O2 (stereo not given) | inconclusive: 2.24 µM [inhibitor, partial curve, poor fit]
COc1ccc(OC)c(C2Nc3nc4ccccc4n3C(C)=C2C(=O)Nc2ccc(C)cc2C)c1 (stereo not given) | inconclusive: 18.3 µM [inhibitor, single point]
CNC(=O)CN(c1cc(OCCOC)c(Cl)cc1Cl)S(=O)(=O)c1ccc(OC)cc1 | inactive
COC(=O)c1c(NC(NC(C)=O)C(Cl)(Cl)Cl)sc2c1CCCC2 (stereo not given) | inconclusive: 14.1 µM [inhibitor, partial curve, poor fit]
CCCCC1=CC2=CC(=O)C(C)(O)C(=O)C2=CO1 (stereo not given) | inconclusive: 1.68 µM [activator, partial curve, poor fit]

Of the compounds above, these have bromine:
SMILES | Potency
Cc1ccc(OCC(=O)NCc2ccccn2)c(Br)c1 | inactive
CCOc1cc(N2CCOCC2)c(OCC)cc1NC(=O)COc1ncnc2ccc(Br)cc12 | inconclusive: 15.8 µM [inhibitor, single point]

More compounds follow:

SMILES | Potency
CN(CC(=O)Nc1cccc(S(=O)(=O)N2CCOCC2)c1)CC(=O)Nc1ccc(Cl)c(C(F)(F)F)c1 | inconclusive: 11.2 µM [inhibitor, partial curve]
O=C(CSc1nc2ccccc2o1)Nc1cc(C(F)(F)F)ccc1N1CCOCC1 | inconclusive: 35.5 µM [inhibitor, single point]
COc1ccc(C(=O)/C(=C\N(C)C)n2nc(C)cc2C)cc1 | inconclusive: 1.26 µM [inhibitor, partial curve, poor fit]
COC(=O)c1cn(CCOc2ccccc2OC)c2ccccc12 | inconclusive: 35.5 µM [inhibitor, single point]
N#C/C(=C\c1cn(CCOc2ccccc2)c2ccccc12)C(=O)NCC1CCCO1 (stereo not given) | inconclusive: 11.2 µM [inhibitor, single point]
NS(=O)(=O)c1ccc(CCNC(=O)C2(S(=O)(=O)c3ccc(Cl)cc3)CC2)cc1 | inconclusive: 0.562 µM [inhibitor, full curve, poor fit]
C=CCn1c(SCC(=O)N2CC(=O)Nc3ccccc32)nc2scc(-c3ccccc3)c2c1=O | inconclusive: 11.2 µM [inhibitor, partial curve]
Cc1cccc(NC(=O)c2ccc3snnc3c2)c1 | inactive
Oc1ccccc1/C=N/Nc1ccnc(SCc2ccccc2)n1 | inactive
Cc1ccc2nc(-c3ccc(Cl)c(NC(=O)COc4cccc(C)c4C)c3)oc2c1 | inconclusive: 2 µM [activator, partial curve, poor fit]
Cc1cc(NC(=O)CCC(=O)N(CCC(C)C)C(C(=O)NCC2CCCO2)c2ccccc2C)no1 (stereo not given) | inactive
Cc1ccc(S(=O)(=O)Nc2ccc(C(=O)NCc3ccncc3)cc2)cc1 | inactive
COc1ccc(C(=O)N2CCC3(CC2)OCCO3)cc1 | inactive
COc1ccc(CNC(=O)CCNC(=O)c2ccc(C(C)(C)C)cc2)cc1OC | inactive
CC(C)c1ccc(NC(=O)Cn2cc(S(=O)(=O)N3CCN(c4ccccc4F)CC3)c3ccccc3c2=O)cc1 | inactive
COc1ccc(NC2=NCC(=O)N2c2ccccc2F)cc1 | inactive
Cc1cc(C(=O)COC(=O)c2cc(O)c3ccccc3c2O)c(C)n1CC1CCCO1 (stereo not given) | inconclusive: 11.2 µM [inhibitor, partial curve, poor fit]
C[C@]12C=C[C@H](O)CC1=CCC1C2CC[C@@]2(C)C1CCC21OCCO1 (stereo not given in full) | inconclusive: 35.5 µM [inhibitor, single point]
CCCC(C(=O)NC1CCCC1)N(Cc1ccc(F)cc1)C(=O)c1snc(C(N)=O)c1N (stereo not given) | inconclusive: 11.2 µM [inhibitor, partial curve]
COc1ccccc1-n1c(-c2ccc(C)cc2)nc2ccccc2c1=O | inconclusive: 10 µM [inhibitor, partial curve, poor fit]
CCOC(=O)c1cc2c(ccn2-c2ccc(F)cc2)n1CC(=O)N1CCN(C(=O)c2ccco2)CC1 | inactive
